Here are results for 16 molecules from doi:10.1101/2021.11.19.469212.

Sequences of proteins named here, by UniProt entry; tags and fusion partners are left off. Residues count along the entry.
UniProt Q96CW1: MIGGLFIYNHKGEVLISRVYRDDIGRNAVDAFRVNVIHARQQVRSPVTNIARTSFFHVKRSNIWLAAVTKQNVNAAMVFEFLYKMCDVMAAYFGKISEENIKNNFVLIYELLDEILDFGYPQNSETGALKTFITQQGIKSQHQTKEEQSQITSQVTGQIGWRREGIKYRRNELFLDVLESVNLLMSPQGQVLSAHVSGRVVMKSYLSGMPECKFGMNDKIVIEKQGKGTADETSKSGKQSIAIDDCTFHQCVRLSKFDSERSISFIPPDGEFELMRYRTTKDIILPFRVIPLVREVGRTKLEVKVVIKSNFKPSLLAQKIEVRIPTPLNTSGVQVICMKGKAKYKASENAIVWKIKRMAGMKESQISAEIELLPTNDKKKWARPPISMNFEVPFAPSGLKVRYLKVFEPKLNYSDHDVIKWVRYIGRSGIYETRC
UniProt Q9H1H9: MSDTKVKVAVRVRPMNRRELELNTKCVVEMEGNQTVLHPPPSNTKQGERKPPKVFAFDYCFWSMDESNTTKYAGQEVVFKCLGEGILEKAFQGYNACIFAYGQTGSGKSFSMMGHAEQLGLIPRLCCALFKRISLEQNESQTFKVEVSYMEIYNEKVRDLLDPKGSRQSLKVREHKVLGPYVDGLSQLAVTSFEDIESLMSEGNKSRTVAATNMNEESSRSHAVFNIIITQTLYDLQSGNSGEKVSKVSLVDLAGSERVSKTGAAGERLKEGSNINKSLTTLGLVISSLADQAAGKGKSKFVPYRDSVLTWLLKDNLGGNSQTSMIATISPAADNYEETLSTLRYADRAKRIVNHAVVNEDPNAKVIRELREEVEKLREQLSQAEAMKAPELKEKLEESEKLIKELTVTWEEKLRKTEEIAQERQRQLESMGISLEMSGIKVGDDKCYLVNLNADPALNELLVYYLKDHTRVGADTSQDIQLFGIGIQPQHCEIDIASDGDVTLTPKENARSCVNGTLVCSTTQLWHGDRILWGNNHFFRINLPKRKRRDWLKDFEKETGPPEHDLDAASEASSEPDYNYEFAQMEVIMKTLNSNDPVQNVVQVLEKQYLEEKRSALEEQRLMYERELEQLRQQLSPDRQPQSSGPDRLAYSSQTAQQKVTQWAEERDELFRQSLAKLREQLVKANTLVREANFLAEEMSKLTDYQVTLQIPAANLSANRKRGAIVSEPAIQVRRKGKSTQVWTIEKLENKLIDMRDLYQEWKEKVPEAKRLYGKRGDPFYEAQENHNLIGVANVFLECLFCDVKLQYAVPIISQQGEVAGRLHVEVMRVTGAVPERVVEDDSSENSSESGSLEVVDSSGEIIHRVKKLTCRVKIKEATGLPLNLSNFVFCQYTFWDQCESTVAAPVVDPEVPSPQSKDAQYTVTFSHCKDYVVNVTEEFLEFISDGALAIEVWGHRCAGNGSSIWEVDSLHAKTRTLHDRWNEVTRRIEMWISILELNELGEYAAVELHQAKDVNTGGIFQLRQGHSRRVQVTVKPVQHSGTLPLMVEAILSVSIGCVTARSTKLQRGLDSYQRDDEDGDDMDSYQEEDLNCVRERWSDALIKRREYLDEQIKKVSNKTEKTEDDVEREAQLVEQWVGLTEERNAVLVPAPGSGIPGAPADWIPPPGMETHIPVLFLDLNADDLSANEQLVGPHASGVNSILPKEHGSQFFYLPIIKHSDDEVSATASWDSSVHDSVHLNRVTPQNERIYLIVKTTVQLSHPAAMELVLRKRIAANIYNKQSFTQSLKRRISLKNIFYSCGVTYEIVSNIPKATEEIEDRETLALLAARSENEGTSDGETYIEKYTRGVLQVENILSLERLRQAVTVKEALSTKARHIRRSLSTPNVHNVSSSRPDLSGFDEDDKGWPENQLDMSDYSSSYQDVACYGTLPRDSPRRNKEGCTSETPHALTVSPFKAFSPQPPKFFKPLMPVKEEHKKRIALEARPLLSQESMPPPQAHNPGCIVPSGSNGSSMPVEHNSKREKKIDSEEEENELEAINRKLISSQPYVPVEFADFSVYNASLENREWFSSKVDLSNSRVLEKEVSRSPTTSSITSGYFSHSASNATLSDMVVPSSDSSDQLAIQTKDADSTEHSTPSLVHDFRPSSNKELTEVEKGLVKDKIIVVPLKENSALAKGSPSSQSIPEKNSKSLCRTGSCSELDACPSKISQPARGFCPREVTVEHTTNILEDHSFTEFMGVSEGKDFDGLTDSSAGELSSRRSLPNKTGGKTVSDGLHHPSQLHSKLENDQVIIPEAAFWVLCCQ
UniProt Q9P2D3: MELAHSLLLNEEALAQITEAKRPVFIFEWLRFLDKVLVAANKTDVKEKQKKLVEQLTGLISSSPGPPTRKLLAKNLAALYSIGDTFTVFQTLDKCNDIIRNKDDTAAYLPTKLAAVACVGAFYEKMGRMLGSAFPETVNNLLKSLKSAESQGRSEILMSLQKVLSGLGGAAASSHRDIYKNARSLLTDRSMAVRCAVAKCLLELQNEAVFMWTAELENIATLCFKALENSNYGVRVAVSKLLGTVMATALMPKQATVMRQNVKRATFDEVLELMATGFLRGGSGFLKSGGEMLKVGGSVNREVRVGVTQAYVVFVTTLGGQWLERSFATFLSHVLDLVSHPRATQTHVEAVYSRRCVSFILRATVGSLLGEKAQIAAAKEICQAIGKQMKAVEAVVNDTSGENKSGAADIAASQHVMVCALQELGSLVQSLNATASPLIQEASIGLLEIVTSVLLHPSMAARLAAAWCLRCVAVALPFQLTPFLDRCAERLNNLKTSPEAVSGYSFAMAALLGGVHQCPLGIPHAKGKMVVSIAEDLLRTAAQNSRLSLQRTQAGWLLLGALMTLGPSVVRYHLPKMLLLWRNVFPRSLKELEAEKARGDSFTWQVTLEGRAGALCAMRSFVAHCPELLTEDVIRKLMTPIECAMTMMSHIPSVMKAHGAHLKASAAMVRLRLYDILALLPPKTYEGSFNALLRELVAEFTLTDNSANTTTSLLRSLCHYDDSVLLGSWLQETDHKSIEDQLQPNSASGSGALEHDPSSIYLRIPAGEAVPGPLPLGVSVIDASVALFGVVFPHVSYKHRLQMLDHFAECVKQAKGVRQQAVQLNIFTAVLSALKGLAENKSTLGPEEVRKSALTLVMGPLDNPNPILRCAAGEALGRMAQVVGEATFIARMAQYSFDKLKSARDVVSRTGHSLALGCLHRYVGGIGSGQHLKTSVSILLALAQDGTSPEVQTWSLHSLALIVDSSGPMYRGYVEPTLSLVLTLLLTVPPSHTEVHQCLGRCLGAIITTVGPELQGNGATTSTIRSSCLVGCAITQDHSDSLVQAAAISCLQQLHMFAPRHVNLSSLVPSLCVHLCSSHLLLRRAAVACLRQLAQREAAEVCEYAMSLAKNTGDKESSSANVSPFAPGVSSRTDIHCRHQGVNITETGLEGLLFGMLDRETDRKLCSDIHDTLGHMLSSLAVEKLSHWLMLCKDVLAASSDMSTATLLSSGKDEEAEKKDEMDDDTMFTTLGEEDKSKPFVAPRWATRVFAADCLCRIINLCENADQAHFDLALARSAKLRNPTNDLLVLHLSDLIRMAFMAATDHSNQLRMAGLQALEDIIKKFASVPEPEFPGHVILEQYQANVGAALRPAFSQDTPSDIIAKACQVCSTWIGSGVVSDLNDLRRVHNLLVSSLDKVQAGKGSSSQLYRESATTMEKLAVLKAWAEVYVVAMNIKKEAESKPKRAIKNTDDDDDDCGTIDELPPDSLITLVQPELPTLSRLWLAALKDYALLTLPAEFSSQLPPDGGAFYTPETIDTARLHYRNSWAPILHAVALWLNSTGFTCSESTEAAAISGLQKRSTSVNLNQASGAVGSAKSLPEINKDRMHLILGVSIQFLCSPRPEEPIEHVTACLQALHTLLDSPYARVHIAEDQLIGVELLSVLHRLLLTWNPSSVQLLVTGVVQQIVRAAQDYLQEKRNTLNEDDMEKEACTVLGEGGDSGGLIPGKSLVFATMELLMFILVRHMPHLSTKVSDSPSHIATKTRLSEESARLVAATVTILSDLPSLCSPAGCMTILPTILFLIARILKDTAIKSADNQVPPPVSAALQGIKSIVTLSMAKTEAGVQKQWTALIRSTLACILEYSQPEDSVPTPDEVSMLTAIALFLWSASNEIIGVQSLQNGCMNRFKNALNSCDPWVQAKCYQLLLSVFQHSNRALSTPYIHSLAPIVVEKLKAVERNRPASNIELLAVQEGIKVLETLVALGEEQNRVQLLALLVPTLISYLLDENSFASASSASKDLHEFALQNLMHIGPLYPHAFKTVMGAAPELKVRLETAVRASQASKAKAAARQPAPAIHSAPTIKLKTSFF
UniProt Q8TCG2: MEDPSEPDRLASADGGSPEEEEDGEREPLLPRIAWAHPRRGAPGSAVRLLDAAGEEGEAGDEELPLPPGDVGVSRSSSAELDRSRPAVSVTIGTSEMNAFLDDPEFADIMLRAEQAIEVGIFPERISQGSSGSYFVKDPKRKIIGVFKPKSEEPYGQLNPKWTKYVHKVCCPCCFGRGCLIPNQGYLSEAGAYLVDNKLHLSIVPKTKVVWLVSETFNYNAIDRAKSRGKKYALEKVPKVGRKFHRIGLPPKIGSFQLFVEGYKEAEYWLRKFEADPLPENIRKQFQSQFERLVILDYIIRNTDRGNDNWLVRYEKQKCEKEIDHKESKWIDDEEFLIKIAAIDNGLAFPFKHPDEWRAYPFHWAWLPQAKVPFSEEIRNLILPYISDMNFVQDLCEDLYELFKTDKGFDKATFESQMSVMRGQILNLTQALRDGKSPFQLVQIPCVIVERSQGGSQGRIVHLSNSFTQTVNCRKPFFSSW
UniProt P56199, residues 29-1179: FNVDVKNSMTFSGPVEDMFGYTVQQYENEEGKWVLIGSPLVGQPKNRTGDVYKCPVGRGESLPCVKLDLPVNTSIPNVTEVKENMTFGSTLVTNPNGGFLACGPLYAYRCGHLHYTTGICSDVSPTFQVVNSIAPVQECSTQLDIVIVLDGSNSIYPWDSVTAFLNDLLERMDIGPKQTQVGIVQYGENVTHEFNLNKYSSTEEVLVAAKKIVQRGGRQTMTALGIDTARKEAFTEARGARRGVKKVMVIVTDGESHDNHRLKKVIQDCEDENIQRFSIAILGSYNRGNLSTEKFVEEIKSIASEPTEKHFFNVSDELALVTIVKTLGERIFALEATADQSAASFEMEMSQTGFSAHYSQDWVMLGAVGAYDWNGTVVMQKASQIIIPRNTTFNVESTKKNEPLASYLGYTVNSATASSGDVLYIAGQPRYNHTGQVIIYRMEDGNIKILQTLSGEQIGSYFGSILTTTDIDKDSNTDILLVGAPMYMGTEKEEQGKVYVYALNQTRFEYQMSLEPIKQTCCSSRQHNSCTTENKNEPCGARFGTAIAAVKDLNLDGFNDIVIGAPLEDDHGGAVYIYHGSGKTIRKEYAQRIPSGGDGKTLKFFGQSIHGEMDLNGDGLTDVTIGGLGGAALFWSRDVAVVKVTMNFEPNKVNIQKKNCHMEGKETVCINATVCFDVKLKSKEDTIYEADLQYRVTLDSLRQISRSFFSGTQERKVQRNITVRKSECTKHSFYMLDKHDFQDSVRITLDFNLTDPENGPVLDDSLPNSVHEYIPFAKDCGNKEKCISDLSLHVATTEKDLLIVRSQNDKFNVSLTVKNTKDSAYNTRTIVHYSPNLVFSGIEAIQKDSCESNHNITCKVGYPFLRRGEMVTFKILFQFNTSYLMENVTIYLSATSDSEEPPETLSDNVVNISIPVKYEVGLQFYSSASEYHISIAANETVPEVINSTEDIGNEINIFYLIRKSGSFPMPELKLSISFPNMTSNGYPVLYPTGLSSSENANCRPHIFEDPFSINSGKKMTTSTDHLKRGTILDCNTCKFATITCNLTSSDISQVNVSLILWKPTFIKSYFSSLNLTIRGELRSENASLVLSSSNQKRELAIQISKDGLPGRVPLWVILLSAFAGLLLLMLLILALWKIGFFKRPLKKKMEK
UniProt Q14677: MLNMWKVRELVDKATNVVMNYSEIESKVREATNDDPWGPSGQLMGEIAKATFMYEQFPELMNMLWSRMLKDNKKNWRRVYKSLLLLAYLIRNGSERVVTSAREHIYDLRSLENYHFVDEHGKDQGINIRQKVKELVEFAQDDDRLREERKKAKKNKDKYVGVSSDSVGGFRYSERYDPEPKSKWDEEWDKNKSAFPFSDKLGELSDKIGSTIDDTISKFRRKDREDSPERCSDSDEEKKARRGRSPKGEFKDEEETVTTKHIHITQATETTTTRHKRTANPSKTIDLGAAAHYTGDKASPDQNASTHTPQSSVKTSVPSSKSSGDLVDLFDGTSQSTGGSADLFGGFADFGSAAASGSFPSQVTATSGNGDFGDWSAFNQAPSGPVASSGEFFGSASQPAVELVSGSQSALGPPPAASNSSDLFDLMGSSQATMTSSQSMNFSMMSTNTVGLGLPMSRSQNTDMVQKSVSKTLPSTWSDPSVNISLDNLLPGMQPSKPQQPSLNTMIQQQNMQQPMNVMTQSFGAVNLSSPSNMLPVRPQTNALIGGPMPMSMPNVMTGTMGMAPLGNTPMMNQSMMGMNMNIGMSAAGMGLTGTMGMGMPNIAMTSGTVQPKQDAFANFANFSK

Common to all, as to assay: proximity labelling
For assay [1], the target named is T1, AP1μA^EN-TurboID-V5 (human (endogenous in HeLa)) (UniProt Q9BXS5).
T1 sequence: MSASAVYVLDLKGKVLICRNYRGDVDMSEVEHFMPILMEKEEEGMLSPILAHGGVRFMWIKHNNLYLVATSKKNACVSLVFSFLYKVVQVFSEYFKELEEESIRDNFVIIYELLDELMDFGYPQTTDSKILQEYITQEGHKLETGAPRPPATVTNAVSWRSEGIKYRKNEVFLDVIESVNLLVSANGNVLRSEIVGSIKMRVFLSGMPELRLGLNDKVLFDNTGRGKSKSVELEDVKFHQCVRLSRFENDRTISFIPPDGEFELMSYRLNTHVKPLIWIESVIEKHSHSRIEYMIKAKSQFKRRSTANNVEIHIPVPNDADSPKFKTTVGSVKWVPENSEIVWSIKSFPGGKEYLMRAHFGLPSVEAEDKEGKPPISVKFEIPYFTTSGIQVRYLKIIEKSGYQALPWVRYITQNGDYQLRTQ

The target of assay [2] is T2, AP1μA-TurboID-V5 (transiently overexpressed) (UniProt Q9BXS5).
T2 sequence: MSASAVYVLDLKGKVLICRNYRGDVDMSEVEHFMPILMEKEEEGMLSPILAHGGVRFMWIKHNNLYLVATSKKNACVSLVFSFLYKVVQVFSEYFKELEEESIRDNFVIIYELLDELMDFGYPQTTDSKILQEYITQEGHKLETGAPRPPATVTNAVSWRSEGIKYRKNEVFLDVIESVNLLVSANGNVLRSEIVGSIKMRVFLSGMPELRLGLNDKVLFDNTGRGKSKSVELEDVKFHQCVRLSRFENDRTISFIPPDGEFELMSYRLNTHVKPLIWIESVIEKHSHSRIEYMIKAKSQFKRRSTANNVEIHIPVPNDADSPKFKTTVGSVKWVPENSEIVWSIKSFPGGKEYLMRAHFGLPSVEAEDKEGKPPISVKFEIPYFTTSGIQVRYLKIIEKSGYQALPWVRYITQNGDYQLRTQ

Assay [3] addresses T3, V5-TurboID-CLCa^EN (human (endogenous in HeLa)) (UniProt P09496).
T3 sequence: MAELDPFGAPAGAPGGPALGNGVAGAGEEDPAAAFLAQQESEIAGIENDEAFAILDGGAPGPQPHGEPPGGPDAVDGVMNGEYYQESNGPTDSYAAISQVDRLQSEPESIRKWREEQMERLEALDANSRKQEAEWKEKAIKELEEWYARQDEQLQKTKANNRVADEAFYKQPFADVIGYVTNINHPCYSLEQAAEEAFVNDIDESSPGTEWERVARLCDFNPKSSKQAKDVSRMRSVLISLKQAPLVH

The target in assay [4] is AP2μ^EN-TurboID-V5 (human (endogenous in HeLa)) (UniProt Q96CW1).

No constants are given. Whether binding was seen depends on the method and setting. In cells and extracts the contact can be indirect. These calls come from enrichment with a bait or labelling near it, and not all partners need be listed. For some assays here: Tags and fused reporters may be left off the sequences shown.

“kinesin-like protein KIF13A (from UniProt Q9H1H9 1-1805)”: the binding result in assay [1] and in assay [2] was “binds” each time.
For “HEAT repeat containing 5B (HEATR5B) (from UniProt Q9P2D3 1-2071)”, the binding entry in assay [3] was “binds”.
With GGA2 (from UniProt Q9UJY4 1-613), the binding entry in assay [1] and in assay [2] was “binds” in each case.
As to ITGAV (from UniProt P06756 31-1048), the binding result in assay [4] is recorded as “binds”.
Turning to AP-1γ (human (endogenous in HeLa)), the binding entry in assay [1] and in assay [2] was “binds” in each case.
With “PI4-kinase PI4K2B (from UniProt Q8TCG2 1-481)”, in assay [1], the binding result is reported as “binds”.
On the same count and under the same terms, as for AP-1s (human (endogenous in HeLa)), the entry is “binds”.
Regarding ITGA1 (from UniProt P56199 29-1179), the binding entry in assay [4] is recorded as “binds”.
“Epsin-1 (EPS1) (from UniProt Q9Y6I3 1-576)”: in assay [3], the binding result is “binds”.
As to ATP7A (from UniProt Q04656 1-1500), in assay [1], the binding result is “binds”.
The same measure, in the same setting: as for “EpsinR (CLINT1) (from UniProt Q14677 1-625)”, the entry is “binds”.

B1: AP-1β1 (protein, UniProt Q10567 1-949)
chain: MTDSKYFTTTKKGEIFELKAELNSDKKEKKKEAVKKVIASMTVGKDVSALFPDVVNCMQTDNLELKKLVYLYLMNYAKSQPDMAIMAVNTFVKDCEDPNPLIRALAVRTMGCIRVDKITEYLCEPLRKCLKDEDPYVRKTAAVCVAKLHDINAQLVEDQGFLDTLKDLISDSNPMVVANAVAALSEIAESHPSSNLLDLNPQSINKLLTALNECTEWGQIFILDCLANYMPKDDREAQSICERVTPRLSHANSAVVLSAVKVLMKFMEMLSKDLDYYGTLLKKLAPPLVTLLSAEPELQYVALRNINLIVQKRPEILKHEMKVFFVKYNDPIYVKLEKLDIMIRLASQANIAQVLAELKEYATEVDVDFVRKAVRAIGRCAIKVEQSAERCVSTLLDLIQTKVNYVVQEAIVVIKDIFRKYPNKYESVIATLCENLDSLDEPEARAAMIWIVGEYAERIDNADELLESFLEGFHDESTQVQLQLLTAIVKLFLKKPTETQELVQQVLSLATQDSDNPDLRDRGYIYWRLLSTDPVAAKEVVLAEKPLISEETDLIEPTLLDELICYIGTLASVYHKPPSAFVEGGRGVVHKSLPPRTASSESAESPETAPTGAPPGEQPDVIPAQGDLLGDLLNLDLGPPVSGPPLATSSVQMGAVDLLGGGLDSLMGDEPEGIGGTNFVAPPTAAVPANLGAPIGSGLSDLFDLTSGVGTLSGSYVAPKAVWLPAMKAKGLEISGTFTRQVGSISMDLQLTNKALQVMTDFAIQFNRNSFGLAPAAPLQVHAPLSPNQTVEISLPLSTVGSVMKMEPLNNLQVAVKNNIDVFYFSTLYPLHILFVEDGKMDRQMFLATWKDIPNENEAQFQIRDCPLNAEAASSKLQSSNIFTVAKRNVEGQDMLYQSLKLTNGIWVLAELRIQPGNPSCTDLELSLKCRAPEVSQHVYQAYETILKN
Regarding B1, the binding entry in assay [1] and in assay [2] was “binds” in each case.

B2: Sodium-bicarbonate co-transporter NBCn1 (SLC4A7) (protein, UniProt Q9Y6M7 1-1214)
chain: MERFRLEKKLPGPDEEAVVDLGKTSSTVNTKFEKEELESHRAVYIGVHVPFSKESRRRHRHRGHKHHHRRRKDKESDKEDGRESPSYDTPSQRVQFILGTEDDDEEHIPHDLFTEMDELCYRDGEEYEWKETARWLKFEEDVEDGGDRWSKPYVATLSLHSLFELRSCILNGTVMLDMRASTLDEIADMVLDNMIASGQLDESIRENVREALLKRHHHQNEKRFTSRIPLVRSFADIGKKHSDPHLLERNGEGLSASRHSLRTGLSASNLSLRGESPLSLLLGHLLPSSRAGTPAGSRCTTPVPTPQNSPPSSPSISRLTSRSSQESQRQAPELLVSPASDDIPTVVIHPPEEDLEAALKGEEQKNEENVDLTPGILASPQSAPGNLDNSKSGEIKGNGSGGSRENSTVDFSKVDMNFMRKIPTGAEASNVLVGEVDFLERPIIAFVRLAPAVLLTGLTEVPVPTRFLFLLLGPAGKAPQYHEIGRSIATLMTDEIFHDVAYKAKDRNDLLSGIDEFLDQVTVLPPGEWDPSIRIEPPKSVPSQEKRKIPVFHNGSTPTLGETPKEAAHHAGPELQRTGRLFGGLILDIKRKAPFFLSDFKDALSLQCLASILFLYCACMSPVITFGGLLGEATEGRISAIESLFGASLTGIAYSLFAGQPLTILGSTGPVLVFEKILYKFCRDYQLSYLSLRTSIGLWTSFLCIVLVATDASSLVCYITRFTEEAFAALICIIFIYEALEKLFDLGETYAFNMHNNLDKLTSYSCVCTEPPNPSNETLAQWKKDNITAHNISWRNLTVSECKKLRGVFLGSACGHHGPYIPDVLFWCVILFFTTFFLSSFLKQFKTKRYFPTKVRSTISDFAVFLTIVIMVTIDYLVGVPSPKLHVPEKFEPTHPERGWIISPLGDNPWWTLLIAAIPALLCTILIFMDQQITAVIINRKEHKLKKGAGYHLDLLMVGVMLGVCSVMGLPWFVAATVLSISHVNSLKVESECSAPGEQPKFLGIREQRVTGLMIFILMGLSVFMTSVLKFIPMPVLYGVFLYMGVSSLKGIQLFDRIKLFGMPAKHQPDLIYLRYVPLWKVHIFTVIQLTCLVLLWVIKVSAAAVVFPMMVLALVFVRKLMDLCFTKRELSWLDDLMPESKKKKEDDKKKKEKEEAERMLQDDDDTVHLPFEGGSLLQIPVKALKYSPDKPVSVKISFEDEPRKKYVDAETSL
Consider B2, for which the binding entry in assay [1] was “binds”.

B3: GGA3 (protein, UniProt Q9NZ52 1-723)
chain: MAEAEGESLESWLNKATNPSNRQEDWEYIIGFCDQINKELEGPQIAVRLLAHKIQSPQEWEALQALTVLEACMKNCGRRFHNEVGKFRFLNELIKVVSPKYLGDRVSEKVKTKVIELLYSWTMALPEEAKIKDAYHMLKRQGIVQSDPPIPVDRTLIPSPPPRPKNPVFDDEEKSKLLAKLLKSKNPDDLQEANKLIKSMVKEDEARIQKVTKRLHTLEEVNNNVRLLSEMLLHYSQEDSSDGDRELMKELFDQCENKRRTLFKLASETEDNDNSLGDILQASDNLSRVINSYKTIIEGQVINGEVATLTLPDSEGNSQCSNQGTLIDLAELDTTNSLSSVLAPAPTPPSSGIPILPPPPQASGPPRSRSSSQAEATLGPSSTSNALSWLDEELLCLGLADPAPNVPPKESAGNSQWHLLQREQSDLDFFSPRPGTAACGASDAPLLQPSAPSSSSSQAPLPPPFPAPVVPASVPAPSAGSSLFSTGVAPALAPKVEPAVPGHHGLALGNSALHHLDALDQLLEEAKVTSGLVKPTTSPLIPTTTPARPLLPFSTGPGSPLFQPLSFQSQGSPPKGPELSLASIHVPLESIKPSSALPVTAYDKNGFRILFHFAKECPPGRPDVLVVVVSMLNTAPLPVKSIVLQAAVPKSMKVKLQPPSGTELSPFSPIQPPAAITQVMLLANPLKEKVRLRYKLTFALGEQLSTEVGEVDQFPPVEQWGNL
Take B3: in assay [1], the binding entry is on record as “binds”.

B4: Epsin-2 (EPS2) (protein, UniProt O95208 1-641)
chain: MTTSSIRRQMKNIVNNYSEAEIKVREATSNDPWGPSSSLMTEIADLTYNVVAFSEIMSMVWKRLNDHGKNWRHVYKALTLLDYLIKTGSERVAQQCRENIFAIQTLKDFQYIDRDGKDQGINVREKSKQLVALLKDEERLKAERAQALKTKERMAQVATGMGSNQITFGRGSSQPNLSTSHSEQEYGKAGGSPASYHGSPEASLCPQHRTGAPLGQSEELQPLSQRHPFLPHLGLASRPNGDWSQPCLTCDRAARATSPRVSSELEQARPQTSGEEELQLQLALAMSREVAEQEERLRRGDDLRLQMALEESRRDTVKIPKKKEHGSLPQQTTLLDLMDALPSSGPAAQKAEPWGPSASTNQTNPWGGPAAPASTSDPWPSFGTKPAASIDPWGVPTGATVQSVPKNSDPWAASQQPASSAGKRASDAWGAVSTTKPVSVSGSFELFSNLNGTIKDDFSEFDNLRTSKKTAESVTSLPSQNNGTTSPDPFESQPLTVASSKPSSARKTPESFLGPNAALVNLDSLVTRPAPPAQSLNPFLAPGAPATSAPVNPFQVNQPQPLTLNQLRGSPVLGTSTSFGPGPGVESMAVASMTSAAPQPALGATGSSLTPLGPAMMNMVGSVGIPPSAAQATGTTNPFLL
On to B4, for which, in assay [4], the binding entry was “binds”.

B5: GGA1 (protein, UniProt Q9UJY5 1-639)
chain: MEPAMEPETLEARINRATNPLNKELDWASINGFCEQLNEDFEGPPLATRLLAHKIQSPQEWEAIQALTVLETCMKSCGKRFHDEVGKFRFLNELIKVVSPKYLGSRTSEKVKNKILELLYSWTVGLPEEVKIAEAYQMLKKQGIVKSDPKLPDDTTFPLPPPRPKNVIFEDEEKSKMLARLLKSSHPEDLRAANKLIKEMVQEDQKRMEKISKRVNAIEEVNNNVKLLTEMVMSHSQGGAAAGSSEDLMKELYQRCERMRPTLFRLASDTEDNDEALAEILQANDNLTQVINLYKQLVRGEEVNGDATAGSIPGSTSALLDLSGLDLPPAGTTYPAMPTRPGEQASPEQPSASVSLLDDELMSLGLSDPTPPSGPSLDGTGWNSFQSSDATEPPAPALAQAPSMESRPPAQTSLPASSGLDDLDLLGKTLLQQSLPPESQQVRWEKQQPTPRLTLRDLQNKSSSCSSPSSSATSLLHTVSPEPPRPPQQPVPTELSLASITVPLESIKPSNILPVTVYDQHGFRILFHFARDPLPGRSDVLVVVVSMLSTAPQPIRNIVFQSAVPKVMKVKLQPPSGTELPAFNPIVHPSAITQVLLLANPQKEKVRLRYKLTFTMGDQTYNEMGDVDQFPPPETWGSL
With B5, in assay [1], the binding result was “binds”.
